In this data set the test system is MutS. Kind of data set: binding assay. The following applies: 3'-C3-SH on strand I, immobilized on gold, diluted with butanethiol, purified recombinant protein.

Construct, isoform or probe ends are uncertain for at least one entry. The comparison behind a weaker result is the experiment's own reference, which may not be listed here.

As to “AACTACTGGGCCATCGTGAC (double strand) [20 bp perfect-match duplex (I/II)]”, the binding result was “binds more weakly”.

Turning to “AACTACTGGGCCATCGTGAC / GTCACGATGGCCCAGTAGCT [20 bp single A-C mismatch duplex (I/C-II)]”, where the note is “variant of 20 bp perfect-match duplex (I/II)”, the binding result is “binds”.

(Values after patent US20060275786.)
